According to PubChem BioAssay AID493014 (National Center for Advancing Translational Sciences (NCATS), 2011):
The other results are listed elsewhere or left out. Further columns of the screen follow, without active or inactive calls. Most of these compounds were active or inconclusive in the main read-out, so they are no random draw. The note in brackets gives the kind of curve behind each potency; many fits are weak.

Assay: qHTS Assay to Find Inhibitors of Chronic Active B-Cell Receptor Signaling
Conditions: ABC-DLBCL IkBa-CBG/CBR reporter, luminescence ratio (green luciferase fused to IkBa over red control in TMD8 lymphoma cells), 4 h
How it was run: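 TMD8 human ABC-DLBCL cells with doxycycline-inducible IκBα–green luciferase fusion and unfused red luciferase, in 0.5% FBS medium; compounds up to 46 uM, 4 h at 37C. Green/red luminescence ratio, filter-overlap corrected, fitted to concentration-response curves.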

[1] = measured here: CBR red luminescence, cell number
[2] = measured here: IkBa-CBG green luminescence

Structure (SMILES)	AC50 [1]	AC50 [2]
O=C(COc1ccccc1[N+](=O)[O-])N(C1CCCCC1)C1CCS(=O)(=O)C1 (stereo unspecified)	8.2 µM [falling, partial curve]	
CC(Oc1ccccc1)C(=O)NNC(=O)c1ccccn1 (stereo unspecified)	16.4 µM [rising, single point]	
CC(C)c1ccc(CNC(=O)CSCC(=O)Nc2ccc3ccccc3c2)cc1	22.4 µM [falling, single point]	
CCOC(=O)CC(=O)CSc1nc2c(C)c(C)ccc2cc1C	32.6 µM [rising, single point]	
COc1ccc(/C=C2/SC(=O)N(CCCCCC(=O)Nc3ccccc3C(=O)O)C2=S)cc1	0.355 µM [falling, full curve]	
CCC1Oc2ccc(C)cc2N(CC(=O)N(Cc2ccc(C)o2)C2CCCC2)C1=O (stereo unspecified)	23.1 µM [falling, single point]	
Cc1ccc(CC(=O)Nc2nccs2)cc1C	3.16 µM [falling, full curve, poor fit]	
O=c1[nH]c2c(cnn2-c2ccc(Cl)cc2)c(=O)n1-c1cccc(Cl)c1	0.282 µM [falling, full curve, poor fit]	
Cc1[nH]c2ccccc2c1C(=O)C(=O)N1CC=C(c2ccccc2)CC1	29.1 µM [falling, single point]	
CC(C)(C)OC(=O)N1CCC[C@H]1C(=O)N/N=C/c1ccc2nccnc2c1	7.94 µM [falling, partial curve, poor fit]	
O=C(/C=C/c1ccc(O)cc1)c1ccccc1	25.1 µM [falling, single point]	11.2 µM [rising, partial curve, poor fit]
COc1ccccc1NC(=O)c1ccccc1C(=O)O	35.5 µM [falling, single point]	
O=C(CCC1CCN(C(=O)c2cccc(Cl)c2F)CC1)Nc1ccccc1	4.47 µM [falling, partial curve, poor fit]	
CC1(C)NC(=O)N(CCCOc2ccccc2Br)C1=O	23.1 µM [rising, single point]	
COc1ccc(N/C=C(\C#N)c2nc3ccccc3n2C)c(OC)c1	0.708 µM [rising, full curve, poor fit]	
CCc1ccccc1NC(=O)c1ccccc1N1C(=O)C2C3C=CC(C3)C2C1=O (stereo unspecified)	1.58 µM [falling, partial curve, poor fit]	
Nc1ccc2nc(-c3ccccn3)[nH]c2c1	13 µM [falling, partial curve, poor fit]	
COc1ccc(-c2cnc3c(-c4ccc(F)cc4)cnn3c2N)cc1	4.47 µM [rising, full curve, poor fit]	
COc1ccc(NC2CCCN(C(=O)CSc3ccncc3)C2)cc1 (stereo unspecified)	3.98 µM [falling, partial curve, poor fit]	
O=C(CC1C(=O)NCCN1C/C=C/c1ccccc1)NCCCC1CCCC1 (stereo unspecified)	15.8 µM [falling, single point]	
CCOC(=O)c1sc(N/N=C/c2cc(Br)c(O)c(OC)c2)nc1C	35.5 µM [falling, single point]	
N/C(=N\OC(=O)CCCc1ccccc1)c1ccc([N+](=O)[O-])cc1	2.31 µM [rising, full curve, poor fit]	

3 of the compounds above, as labelled records:
CC(C)c1ccc(CNC(=O)CSCC(=O)Nc2ccc3ccccc3c2)cc1
  AC50 [1]: 22.4 µM [falling, single point]
CCOC(=O)CC(=O)CSc1nc2c(C)c(C)ccc2cc1C
  AC50 [1]: 32.6 µM [rising, single point]
COc1ccc(/C=C2/SC(=O)N(CCCCCC(=O)Nc3ccccc3C(=O)O)C2=S)cc1
  AC50 [1]: 0.355 µM [falling, full curve]

(list continues)

Structure (SMILES)	AC50 [1]	AC50 [2]
COc1ccc(Cl)cc1NC(=O)c1ccc2c(SCC(=O)O)c3c(nc2c1)CCCC3	22.4 µM [falling, partial curve, poor fit]	
COc1cccc2cc(C(=O)OCC(=O)NCc3ccc4c(c3)OCO4)c(=O)oc12	35.5 µM [falling, single point]	
COC(=O)CN1C(=O)NC2(CCCc3ccccc32)C1=O (stereo unspecified)	35.5 µM [rising, single point]	
COc1ccc(OCc2cc(C(=O)N(C)Cc3cc(C4CC4)n[nH]3)no2)c(Cl)c1	2.82 µM [falling, partial curve, poor fit]	
Cc1c(CN2CCC(CO)(Cc3ccccc3)CC2)c2ccccc2n1C	22.4 µM [falling, single point]	
O=C(NCCNC1CCC(c2ccccc2)CC1)c1ccc(F)cc1 (stereo unspecified)	3.55 µM [falling, partial curve]	
O=C1NC(=Nc2ccc(F)cc2)CS1	1 µM [falling, full curve, poor fit]	
CN(C)CC(=O)c1ccc(-c2ccccc2)cc1	6.31 µM [falling, partial curve, poor fit]	
COc1ccc(N2C(=O)CC(N(CCc3ccc(OC)c(OC)c3)C(=S)Nc3ccccc3)C2=O)cc1 (stereo unspecified)	25.9 µM [falling, single point]	
CN(Cc1nc(CCc2ccccc2)no1)Cc1cccs1	0.631 µM [rising, full curve, poor fit]	
CCC(C)C(NC(=O)c1ccccc1NC(=O)c1ccc(C)cc1)C(=O)O (stereo unspecified)	7.08 µM [falling, partial curve]	
Cc1ccc(NC(=O)Nc2ccc3c(c2)nc(C)n3C)cc1C	12.6 µM [rising, single point]	
Cc1cccc(NC(=O)c2ccccc2NC(=O)C2CCCCC2)c1C	6.31 µM [falling, single point]	
COc1ccc(C(=O)N(Cc2ccc(N(C)C)cc2)C2CCS(=O)(=O)C2)cc1 (stereo unspecified)	31.6 µM [rising, single point]	
COc1ccc(N=CC2=C(O)CC(C)(C)CC2=O)cc1OC	2.51 µM [rising, partial curve]	
CC(C)(C)OC(=O)NCCc1nnc(SCc2c(Cl)cccc2Cl)o1	29.1 µM [falling, single point]	
O=C1/C(=C/c2cccnc2)CC/C1=C\c1cccnc1	12.6 µM [falling, partial curve, poor fit]	
O=C1COc2ccc(-c3csc(NCCc4ccccc4)n3)cc2N1	0.112 µM [rising, full curve, poor fit]	
CC(NC(=O)CSc1nnc(CC(=O)Nc2ccc(Cl)c(Cl)c2)n1C)c1ccccc1 (stereo unspecified)	18.4 µM [falling, single point]	
CN(C)c1ccc(C(CC(=O)c2ccccc2)C2CCCCC2=O)cc1 (stereo unspecified)	4.61 µM [falling, single point]	
Nc1[nH]n(-c2ccccc2)c(=O)c1N=Nc1ccc2c(c1)OCCO2	3.55 µM [falling, partial curve]	0.224 µM [rising, full curve, poor fit]
Cc1ccc2[nH]c(=O)c(CN(CCc3ccccc3)Cc3nnnn3CC3CCCO3)cc2c1 (stereo unspecified)	29.1 µM [falling, single point]	

Structure (SMILES)	AC50 [1]	AC50 [2]
O=c1c2ccccc2c(/C=N/c2nnc(Cc3ccccc3)s2)c(O)n1-c1ccc(Cl)cn1	2.06 µM [rising, full curve, poor fit]	
Cc1ccc(C(=O)/C=C/c2ccc3c(c2)OCO3)o1	29.1 µM [falling, single point]	
O=C(CSc1nnc(-c2n[nH]c3ccccc23)n1-c1ccccc1)Nc1cccc(Cl)c1	29.1 µM [falling, single point]	
c1ccc(OCCSc2nnc3sc4ccccc4n23)cc1	7.94 µM [falling, partial curve, poor fit]	
COc1ccc(C(=O)N/N=C/c2ccc(SC)cc2)cc1	4.61 µM [falling, partial curve, poor fit]	
COC(=O)c1ccc(CNC(=O)CN(CCC(C)C)S(=O)(=O)c2ccc3c(c2)OCCO3)cc1	20.6 µM [rising, single point]	
CCc1c(C)sc(NC(=O)c2cc(CC(C)C)on2)c1C#N	6.51 µM [rising, single point]	
Cc1ccc(C(=O)Oc2ccc(C(=O)COC(=O)c3cnccn3)cc2)cc1	0.13 µM [rising, full curve, poor fit]	
CC(C)(C)OC(=O)NCCCC[C@H](NC(=O)c1[nH]cnc1C(=O)Nc1ccc(CNC(=O)OC(C)(C)C)cc1)C(=O)OC(C)(C)C	1 µM [rising, full curve, poor fit]	
CCOC(=O)/C=C1\SCC(=O)N1CC(=O)NC12CC3CC(CC(C3)C1)C2	6.51 µM [falling, single point]	
Cc1ccc2c(c1)N(CCC(=O)NC1CCCCC1C)C(=O)CO2 (stereo unspecified)	3.16 µM [rising, single point]	
Brc1ccc(CSc2ncnc3nc[nH]c23)cc1	0.731 µM [rising, partial curve, poor fit]	
CC1CN(C(=S)Nc2cccc(Cl)c2)CC(C)O1 (stereo unspecified)	12.6 µM [rising, single point]	
Cc1ccc(NC(=O)CCc2c(C)nc3ncnn3c2C)cc1	3.16 µM [falling, partial curve]	
Cc1cc(NC(=O)CSc2nnc(CNc3ccc(F)cc3)n2C2CCCCC2)no1	20 µM [rising, partial curve, poor fit]	
CCOC(=O)C1=C(Cc2ccc(F)cc2)C(=O)c2ccccc2C1=O	1.3 µM [falling, full curve]	
COc1ccc(-c2cc(C(F)(F)F)n3nc(C(=O)N4CCCCC4)cc3n2)cc1	1.41 µM [rising, full curve, poor fit]	
COC(=O)c1c(C)[nH]c(C(=O)NCc2ccco2)c1C	35.5 µM [falling, partial curve, poor fit]	
COc1ccc(NC(=O)C2CCCO2)cc1Cl (stereo unspecified)	0.13 µM [rising, full curve, poor fit]	
